Reference: patent US20260001879A1, “COMPOUNDS AS MYT1 INHIBITORS” (WIGEN BIOMMEDICINE TECHNOLOGY (SHANGHAI) CO., LTD., priority 2022, published 2026)

Experiments:
[1] = In vitro permeability experiment, MDCK wild type cells; conditions: dog
Experimental: (§1) In vitro passive permeability or the ability to serve as a P-glycoprotein (P-gp) transport substrate was tested using MDCK cells (MDCK wild type) or MDCK cells stably transduced with MDRI (MDCK-MDRI), respectively. The permeability experiment was performed in duplicate in a transwell system at a single concentration (5 μM). The cells were incubated for […] Apical-to-basolateral (A to B, A-B) transport and basolateral-to-apical (B to A, B-A) transport of the corresponding compound were determined, and the permeation rate (apparent permeability) (Papp×10^−6 cm/sec) and efflux ratio (Papp (B−A)/Papp (A−B)) of the test compound were calculated.

[2] = tested on: P-glycoprotein (P-gp, MDR1); test: in vitro; conditions: dog
Experimental: as §1

## CC(C)NCC(O)COc1ccc(CC(N)=O)cc1 (centres unmarked) [Atenolol, atenolol]
[1]; Papp A-B Mean, MDCK-Wild type, mean
  Papp A→B at 90 min, 5 µM: 0.51 ×10⁻⁶ cm/s
[1]; Papp A-B Sample - 01, MDCK-Wild type, replicate 01
  Papp A→B at 90 min, 5 µM: 0.52 ×10⁻⁶ cm/s
[1]; Papp A-B Sample - 02, MDCK-Wild type, replicate 02
  Papp A→B at 90 min, 5 µM: 0.49 ×10⁻⁶ cm/s
[1]; Papp B-A Mean, MDCK-Wild type, mean
  Papp B→A at 90 min, 5 µM: 1.01 ×10⁻⁶ cm/s
[1]; Papp B-A Sample - 01, MDCK-Wild type, replicate 01
  Papp B→A at 90 min, 5 µM: 1.02 ×10⁻⁶ cm/s
[1]; Papp B-A Sample - 02, MDCK-Wild type, replicate 02
  Papp B→A at 90 min, 5 µM: 1.01 ×10⁻⁶ cm/s
[2]; MDCK-MDR1, Papp A-B Sample - 01
  Papp A→B: 0.93 ×10⁻⁶ cm/s
[2]; MDCK-MDR1, Papp A-B Sample - 02
  Papp A→B: 0.91 ×10⁻⁶ cm/s
[2]; MDCK-MDR1, Papp B-A Mean
  Papp B→A: 0.91 ×10⁻⁶ cm/s
[2]; MDCK-MDR1, Papp B-A Sample - 01
  Papp B→A: 0.91 ×10⁻⁶ cm/s
[2]; MDCK-MDR1, Papp B-A Sample - 02
  Papp B→A: 0.92 ×10⁻⁶ cm/s
